Measurements published in article PMC6421407, “Activation of GCN2 by the ribosomal P-stalk” (Proceedings of the National Academy of Sciences of the …, 2019).
Results are given in words; binding and its absence hold for the method and conditions named. Some results given as binding are weak or reduced against the parent protein; the word gives no strength.

Molecular target: human P-stalk protein P2 (human) (UniProt P05387)
Assay: co-expression and co-purification; P-stalk proteins coexpressed in insect cells, purified under nondenaturing conditions by glutathione affinity, anion exchange and gel filtration

“human P-stalk protein P1 (from UniProt P05386 1-114)” was tested, and the binding was “binds”.
